Values from PubChem BioAssay AID1159578 (Peter MacCallum Cancer Centre, 2015)

Test: 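Genome-wide hunt for genes controlling movement of lymphatic endothelial cells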 (primary screen)
System: human lymphatic endothelial cells
Reagent: siRNA pool against human genes, 40 nM
Duration: 48 h after transfection
Measurement: 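High-content imaging of dye-stained cells in a scratch assay measures filled wound area and nuclei per well; duplicate means given as ratio to mock and robust z-score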
Scale: migration robust z-score: higher = faster migration into the scratch; nuclei per well: higher = more cells in the well
Rule for the call: 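Migration changed when robust z exceeds 2 or falls below -2 and mean nuclei number is at least 3300; otherwise not called changed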
Calls: active = migration changed; inactive = no migration change, or too few cells
The whole screen tested about 18,000 reagents; below is an unselected part. About 1,030 of all reagents (5.7%) were called active. 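Inactive calls also include pools with fewer than 3300 nuclei, whose migration was not assessed.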 Raw values vary from plate to plate and are shown uncorrected. Unmarked entries are inactive. Further read-outs or replicates are left out here.

TRIM38 scored migration robust z-score 1.92; nuclei per well, duplicate mean 6452.
Depletion of DOCK8 resulted in: migration robust z-score 0.38; nuclei per well, duplicate mean 6459.
With knock-down of TXLNG, the record shows migration robust z-score 0.52; nuclei per well, duplicate mean 5859.
Against PIGN the deposit lists migration robust z-score 1.87; nuclei per well, duplicate mean 7316.
After knock-down of FAM168B, the record shows migration robust z-score 0.1; nuclei per well, duplicate mean 6250.
After knock-down of PTCHD1, the record shows migration robust z-score -0.24; nuclei per well, duplicate mean 5802.
With knock-down of TTC7A, the screen gave migration robust z-score -2.88; nuclei per well, duplicate mean 2338.
After knock-down of CDK5R1, the screen gave migration robust z-score -4.29; nuclei per well, duplicate mean 2354.
Silencing of ZNF774 gave: migration robust z-score 0.03; nuclei per well, duplicate mean 6206.
RIN2 scored migration robust z-score 0.28; nuclei per well, duplicate mean 5020.
COL5A2 gave migration robust z-score 0.04; nuclei per well, duplicate mean 5738.
After knock-down of OR4F29, the screen gave migration robust z-score -0.24; nuclei per well, duplicate mean 5460.
